## Percent effect of library compounds

By UniProt entry, the sequences of proteins in these tests, tags left out.
UniProt P9WPC5, whole entry: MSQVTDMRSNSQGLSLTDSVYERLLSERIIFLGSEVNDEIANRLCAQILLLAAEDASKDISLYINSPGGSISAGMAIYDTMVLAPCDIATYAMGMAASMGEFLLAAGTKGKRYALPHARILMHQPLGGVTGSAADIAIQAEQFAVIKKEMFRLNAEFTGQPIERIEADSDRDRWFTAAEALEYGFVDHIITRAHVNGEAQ
UniProt P9WPC3, whole entry partner: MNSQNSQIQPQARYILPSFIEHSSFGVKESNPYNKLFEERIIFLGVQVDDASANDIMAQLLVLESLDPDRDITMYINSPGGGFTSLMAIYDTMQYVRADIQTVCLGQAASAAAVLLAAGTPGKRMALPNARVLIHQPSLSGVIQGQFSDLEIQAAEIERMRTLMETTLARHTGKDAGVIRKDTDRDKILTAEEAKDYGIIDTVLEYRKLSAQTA
UniProt I6X8D2, whole entry: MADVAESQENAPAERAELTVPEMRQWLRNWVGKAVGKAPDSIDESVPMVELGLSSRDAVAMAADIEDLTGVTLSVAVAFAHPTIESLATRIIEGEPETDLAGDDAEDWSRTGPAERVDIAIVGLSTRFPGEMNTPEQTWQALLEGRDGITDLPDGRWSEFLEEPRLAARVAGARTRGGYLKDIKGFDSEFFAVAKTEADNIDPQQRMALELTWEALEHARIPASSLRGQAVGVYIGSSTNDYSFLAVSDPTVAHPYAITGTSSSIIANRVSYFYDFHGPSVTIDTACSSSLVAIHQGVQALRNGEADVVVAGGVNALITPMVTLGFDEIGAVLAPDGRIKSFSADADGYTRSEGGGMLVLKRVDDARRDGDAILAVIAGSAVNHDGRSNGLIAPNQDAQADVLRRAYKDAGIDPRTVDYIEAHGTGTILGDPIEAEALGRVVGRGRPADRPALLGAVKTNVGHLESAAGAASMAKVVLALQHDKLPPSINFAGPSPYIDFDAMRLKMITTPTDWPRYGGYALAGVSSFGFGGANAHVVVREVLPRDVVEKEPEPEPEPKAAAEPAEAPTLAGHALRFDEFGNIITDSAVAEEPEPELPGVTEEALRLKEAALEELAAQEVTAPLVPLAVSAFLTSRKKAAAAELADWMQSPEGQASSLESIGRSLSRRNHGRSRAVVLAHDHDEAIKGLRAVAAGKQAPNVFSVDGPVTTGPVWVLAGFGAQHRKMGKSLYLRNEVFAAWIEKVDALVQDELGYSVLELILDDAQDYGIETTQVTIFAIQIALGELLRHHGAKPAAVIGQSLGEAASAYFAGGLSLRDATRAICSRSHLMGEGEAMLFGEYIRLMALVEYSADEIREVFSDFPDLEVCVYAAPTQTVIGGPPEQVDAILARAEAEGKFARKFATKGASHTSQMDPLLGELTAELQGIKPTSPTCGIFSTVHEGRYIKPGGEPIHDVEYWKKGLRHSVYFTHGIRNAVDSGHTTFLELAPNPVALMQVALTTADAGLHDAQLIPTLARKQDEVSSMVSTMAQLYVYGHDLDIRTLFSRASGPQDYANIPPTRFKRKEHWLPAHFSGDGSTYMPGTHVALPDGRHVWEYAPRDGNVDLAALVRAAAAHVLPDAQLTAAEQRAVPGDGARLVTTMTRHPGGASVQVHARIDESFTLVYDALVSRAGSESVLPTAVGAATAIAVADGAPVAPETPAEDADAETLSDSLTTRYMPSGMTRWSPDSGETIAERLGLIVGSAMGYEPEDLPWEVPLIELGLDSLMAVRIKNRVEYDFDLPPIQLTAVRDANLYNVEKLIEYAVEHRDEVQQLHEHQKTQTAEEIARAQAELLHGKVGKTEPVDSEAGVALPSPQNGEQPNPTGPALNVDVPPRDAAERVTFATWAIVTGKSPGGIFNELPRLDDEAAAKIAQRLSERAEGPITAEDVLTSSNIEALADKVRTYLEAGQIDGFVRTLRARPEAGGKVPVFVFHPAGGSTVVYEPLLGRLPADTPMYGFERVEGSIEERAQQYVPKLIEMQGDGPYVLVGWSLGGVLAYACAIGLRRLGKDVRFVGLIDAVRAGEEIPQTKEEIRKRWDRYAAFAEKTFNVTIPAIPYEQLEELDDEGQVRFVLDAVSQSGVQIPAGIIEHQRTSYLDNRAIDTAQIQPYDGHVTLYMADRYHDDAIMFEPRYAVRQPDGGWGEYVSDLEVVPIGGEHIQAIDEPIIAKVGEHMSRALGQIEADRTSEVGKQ

The values are deposited in ChEMBL (CHEMBL3988442, “University of Dundee, Small-Polar-MMV Screening Library” (2021)).

Leishmania in macrophages: 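Cell assay of Leishmania donovani living inside macrophages; the read-out is not stated. Concentration: 30 µM. The record gives no direction; compounds that gave an IC50 in retests scored well above the rest, so higher reads as stronger inhibition. Size under these conditions: about 69,000 compounds, about 1,000 of them at 50% or above in at least one test.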
Toxoplasma: 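Assay of Toxoplasma gondii numbers, read through their beta-galactosidase reporter with a colour substrate. Tested at 10 µM. Higher reads as fewer parasites (inferred from which compounds were picked for retests). Size under these conditions: about 67,000 compounds, about 260 of them at 50% or above in at least one test.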
ClpP1P2: 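Protease assay of ClpP1P2, read by the AMC dye that it sets free. Target: ClpP1P2, Mycobacterium tuberculosis (UniProt P9WPC5 and UniProt P9WPC3). Tested at 50 µM. Higher reads as stronger inhibition, judged from the few compounds that gave an IC50. Most other retested compounds had strongly negative values. Size under these conditions: about 69,000 compounds, about 10 of them at 50% or above in at least one test.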
T. brucei: 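Whole-parasite assay of Trypanosoma brucei over 72 hours; the read-out is not stated. Compounds at 30 µM. Direction is inferred from retests: higher values go with stronger inhibition. Values scatter widely below zero; nearly all retest evidence comes from the higher of the two concentrations used. About 64,000 compounds were tested under these conditions; 1.5% (about 940) showed 50% or more at least once.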
Pks13 thioesterase: 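Polyketide synthase Pks13, Mycobacterium tuberculosis (UniProt I6X8D2). Enzyme assay of the thioesterase domain of polyketide synthase 13; the read-out is not stated. Tested at 30 µM. The record gives no direction; the compounds picked for IC50 retests had high values, so higher reads as stronger inhibition. Of about 67,000 compounds tested this way, about 300 (0.46%) reached 50% or more in at least one test.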

Results are given as percent effect.
The controls that fix the scale are not given in the record; negative values are as filed.
This is an unselected part of the compounds tested.
Two or more numbers in one place are separate tests of the same structure; such repeats can differ widely.
A dash means the value is not listed here; it may have been measured.

structure,Leishmania in macrophages,Toxoplasma,ClpP1P2,T. brucei,Pks13 thioesterase
COc1ccccc1C(=O)N1CCCC1c1ncc2c(n1)CCNC2.Cl (centres undefined),20.49 and 14.74,9.221,-,-11.94,-
CC(C)C[C@H]1CN(c2nc3c(cc2C(N)=O)CCC3)CC[C@@]1(C)O,36.74,9.88,-9.345,-21.87,-10.76
c1ccc(CCCN2CCCC2Cn2cncn2)cc1 (centres undefined),16.63,15.13,-12.61,-,-8.434
COCCc1noc(CN2CCCC2c2noc(C3CC3)n2)n1 (centres undefined),2.285,18.74,-5.667,-24.86,-10.44
CCOc1ccc(NC(C)=O)cc1S(=O)(=O)Nc1ccon1,32.01,21.47,6.838,5.329,-13.38
Cc1noc(CCCC(=O)N2CCCC2c2ccsc2)n1 (centres undefined),14.35,0.2651,-12.75,-,-
c1cncc(-c2noc(CNC3CCCN(c4cccnn4)C3)n2)c1 (centres undefined),-5.591,-0.3277,8.407,-28.85,-21.58
Cc1ccc(S(=O)(=O)NCCOc2ccc3nnc(C)n3n2)s1,15.64,-0.2251,-2.9,-9.273,4.356
CN(CCO)Cc1nnc(C2CCN(C(=O)CN3CCCC3)CC2)n1C,25.37,5.35,-2.781,8.957,-32.44
[H][C@@]12CCN(C(C)=O)C[C@]1([H])OCCN(Cc1ccc(OC)cc1)C2=O,-3.171,-5.294,-,-9.601,-
Cc1ccc(CN(C(=O)NCc2nnc3n2CCCCC3)C2CC2)o1,38.49,-3.413,-2.392,-29.77,-36.34
CCCSc1ncc(C2CC(=O)NCc3nc4ccccn4c32)cn1 (centres undefined),18.87,-8.321,-8.891,-14.74,-11.08
O=C(O)C(F)(F)F.O=C(O)C(F)(F)F.[H][C@@]12CCN(Cc3cccs3)C[C@@]1([H])O[C@H](C(=O)Nc1cccnc1C)C2,49.07,20.97,-,-0.9978,-
CN(C)C(=O)c1ccc2c(c1)N(C)C(CC(=O)NC(CO)CO)CO2 (centres undefined),-9.096,10.83,-6.977,-20.29,-30.44
Cn1ncnc1-c1ccnc(NCc2ccncc2)n1,13.08,-1.641,-10.21,2.408,6.271
Cc1cccc(NC2CCN(C(=O)Nc3ccc(F)c(F)c3)CC2)n1,38.43,39.86,2.722,35.23,18.71
O=C(CN1CC(n2cccn2)C1)NCCc1c[nH]c2ccccc12,15.77,6.57,0.897,17.56,4.998
O=C(O)C(F)(F)F.O=C(O)C(F)(F)F.O=C(O)C(F)(F)F.[H][C@]12C[C@H](C(=O)N3CCN(C)CC3)N(C)[C@@]1([H])CN(c1ncc(F)cn1)C2,20.47,-9.942,-,-20.87,-
[H][C@@]12CN(Cc3cccnc3)CCO[C@]1([H])CN(C(=O)c1ncccn1)C2,7.605,0.05945,-,46.17,-
O=C(c1c2c(NCC3CC3)ncnc2n2ccccc12)N1CCCC1,3.034,13.91,-1170,2.403,-77.68
O=S1(=O)CCN2C(=N1)Oc1ccc(Cl)cc12,9.533 and 21.15,8.302,-11.84,-58.83,-13.45
Cc1ccc(C)c(OCc2cc(C(=O)N(C)Cc3cnn(C)c3)no2)c1,3.779,6.784,-0.02437,0.4276,-28.88
Cc1ccc(Cl)cc1NCc1nc2n(n1)CCCCC2,5.268,-10.27,3.723,-71.89,12.95
Cn1cnc2c1C(COCC1CCOCC1)CN(C1CCOCC1)C2.O=C(O)C(F)(F)F.O=C(O)C(F)(F)F (centres undefined),20.02,7.155,-,15.95,-
CCN1CCN(C[C@@H]2CN(c3ncc(Cl)cc3Cl)C[C@@H]2CO)CC1,62.72,-3.981,-12.6,39.83,-31.7
CC(C)CNC(=O)Cn1cc(C(N)=O)c(-c2ccccc2)n1,24.11,3.258,8.44,-13.29,-11.54
Cc1nn(C)c2nc(N3CCC(C(O)c4nccn4C)CC3)sc12 (centres undefined),-0.9674,-1.489,1.658,-11.27,-15.29
CCC(c1ccc(F)cc1F)N1CCN(CCO)CC1 (centres undefined),6.527,1.096,-3.925,-12.92,-15.38
CC(NC(=O)NCCN1CCCC1)c1nncn1C (centres undefined),28.72,-6.988,-12.16,-19.36,-4.505
CCC(CN1CCCC1)NC(=O)Cc1c(C)[nH]c2c(C)cc(C)cc12 (centres undefined),-,-,-47.89,-,-17.99
Cc1ccccc1CNC(=O)Cc1c(C)nc2cc(=O)[nH]n2c1C,17.56,-20.89,6.051,-16.99,-14.95
Cc1nn(C)c(C)c1C1CCCN1C(=O)c1ccc(N(C)C)nn1 (centres undefined),-10.41,-2.184,-6.119,-14.07,0.363
CC(Cn1cccn1)NC(=O)N1CCN(Cc2ccncc2)CC1 (centres undefined),19.38,-23.19,-35.9,-18.89,-10.95
NC(=O)N1CCCC(C(=O)N2CCN(c3nsc4ccccc34)CC2)C1 (centres undefined),34.33,-14.71,-18.81,39.11,-37.06
CN(C)c1ccc(C(=O)Nc2ccn(CCc3ccncc3)n2)cn1,19.2,3.036,-9.782,-88.23,1.806
COCCN1CCC2(CC1)CC(N1CCOCC1)c1ccc(C)cc12 (centres undefined),-,-,-9.41,-,-13.63
Cc1nc(N(C)CCCc2nccn2C)c2c(C)nn(C)c2n1,1.733,3.822,-3.972,-4.594,-5.299
Cc1cccc(N2CCN(S(=O)(=O)CCN)CC2)c1,13.05,-11.54,10.05,-5.779,45.93
Cc1ccc(C(=O)NCCC2CN(C3CCCC3)CCO2)c(C)c1 (centres undefined),3.98,-1.443,-4.438,0.3212,-6.319
O=C(NCC1CCOC1)c1cc(-c2ccccc2Cl)[nH]n1 (centres undefined),11.05,-7.624,-4.036,-19.51,8.672
COCC1CCCN(C(=O)c2ccc(N(C)Cc3cnn(C)c3)nc2)C1 (centres undefined),4.329,4.987,-10.62,-9.648,-13.56
O=C(O)C(F)(F)F.[H][C@]12CCC[C@@H](CN(C)C3CC3)[C@@]1([H])CN(c1ncccn1)C2,24.25,-7.574,-,-3.838,-
Cc1cc(C(F)(F)F)nc(CNC(=O)CCC2CCCCN2C)n1 (centres undefined),10.18,-10.28,-5.919,-24.56,-8.2
CS(=O)(=O)N1C[C@H]2CN(CC3CC3)C(=O)[C@H]2C1,-,-,-4.237,-,2.559
CN(CC(C)(C)O)C(=O)Nc1ccc(F)c(-n2cccc2)c1,2.56,-7.494,-10.98,-30.32,-12.44
Cc1nn(C)c(C)c1C1CCCN1CCCC#N (centres undefined),-13.36,-14.43,13.54,-5.57,-10.5
O=C1N(c2ccsc2)CCC12CCCN(c1ccccn1)C2 (centres undefined),7.464,-18.66,1.145,-17.82,-5.806
O=C(c1cscn1)N1CCC2(CN(Cc3ccsc3)C2)C1,-,-,-15.16,-,-2.082
O=C(O)C(F)(F)F.O=C(O)C(F)(F)F.O=C1NCC[C@]12CN(Cc1ccncc1)C[C@H]2c1ccccc1,21.03,8.282,-,-81.43,-
Cc1noc2nc(C3CCN(Cc4cccnc4)CC3)cc(C(F)F)c12.Cl,7.259,-1.73,-,-0.2414,-
O=S(=O)(Nc1cnn(C2CCOCC2)c1)c1ccc2c(c1)CCO2,10.39,-2.772,-11.71,35.78,-37.32
CS(=O)(=O)NCCC(=O)N1CCN(S(=O)(=O)c2ccc(Br)cc2)CC1,-27.09,0.4477,0.9606,-2.491,48.9
Fc1ccc(CN2CCOCC3(CCN(Cc4nccs4)C3)C2)cc1.O=C(O)C(F)(F)F.O=C(O)C(F)(F)F (centres undefined),15.6,-5.798,-,-31.34,-
CCOCc1cncc2c1CCN(S(=O)(=O)c1ccccc1)C2,13.85,-8.88,4.703,-,-33.93
Cc1oc(C(=O)O)cc1S(=O)(=O)Nc1ccc(Cl)cc1F,-20.81,14.89,-1.614,-30.28,-1.347
Cc1cccc(-n2nc(CC(C)C)nc2CS(C)(=O)=O)c1,30.37,-19.39,-5.731,15.46,10.74
COCCc1noc(CN2CCCCC2Cn2nc(C)cc2C)n1 (centres undefined),10.15,-2.781,4.187,-3.403,-4.823